This is one part of the list. Single values are uncertain, as repeats are few or missing.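 The apoptosis fraction was the count of cleaved-PARP antibody-stained nuclei relative to all DNA-stained nuclei, imaged in 1,536-well plates. Screening doses were set so most cells survived, and baseline and induced cleaved-PARP levels vary greatly across cell lines.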
Assays:
Assay in all cases: cleaved PARP positive nuclei fraction relative to DMSO control; melanoma cells; higher = more apoptosis
Details in all cases: library dose: low library concentration; 72 h
[1] = system: MZ2-MEL
[2] = system: MeWo
[3] = system: RPMI7951
[4] = system: RVH-421
[5] = system: SkMel28
[6] = system: SkMel2
[7] = system: SkMel30
[8] = system: UACC62
[9] = system: WM115
[10] = system: WM1716
[11] = system: WM1745
[12] = system: WM3526
[13] = system: WM3619
[14] = system: WM451Lu

SMILES | cleaved PARP positive nuclei fraction [1] [%] | cleaved PARP positive nuclei fraction [2] [%] | cleaved PARP positive nuclei fraction [3] [%] | cleaved PARP positive nuclei fraction [4] [%] | cleaved PARP positive nuclei fraction [5] [%] | cleaved PARP positive nuclei fraction [6] [%] | cleaved PARP positive nuclei fraction [7] [%] | cleaved PARP positive nuclei fraction [8] [%] | cleaved PARP positive nuclei fraction [9] [%] | cleaved PARP positive nuclei fraction [10] [%] | cleaved PARP positive nuclei fraction [11] [%] | cleaved PARP positive nuclei fraction [12] [%] | cleaved PARP positive nuclei fraction [13] [%] | cleaved PARP positive nuclei fraction [14] [%]
Cc1cc(Nc2cc(N3CCN(C)CC3)nc(Sc3ccc(NC(=O)C4CC4)cc3)n2)n[nH]1 [Tozasertib] + CC1(C)CCC(c2ccc(Cl)cc2)=C(CN2CCN(c3ccc(C(=O)NS(=O)(=O)c4ccc(N[C@H](CCN5CCOCC5)CSc5ccccc5)c(S(=O)(=O)C(F)(F)F)c4)cc3)CC2)C1 [ABT263] (first compound 0.006 µM, partner dose 0.4 µM) | 366 | 324 | 136 | 222 | 22.5 | 197 | 129 | 111 | 233 | 87.3 | 281 | 21.1 | 97.6 | 44.6
CCCCCCCCCCCCCCCCCCOP(=O)([O-])OC1CC[N+](C)(C)CC1 [Perifosine] + OCc1c[nH]c2ccccc12 [Indole-3-carbinol] (first compound 0.4 µM, partner dose 0.8 µM) | 102 | 67.4 | 85.5 | 186 | 215 | 89.6 | 53.9 | 53.5 | 81.2 | 91.6 | 101 | 98.8 | 161 | 56.8
O=c1[nH]nc(Sc2ncc([N+](=O)[O-])s2)n1-c1ccc2c(c1)OCCO2 + CN1CCN(c2ccc3nc(-c4c(N)c5c(F)cccc5[nH]c4=O)[nH]c3c2)CC1 [Dovitinib] (first compound 0.2 µM, partner dose 0.1 µM) | 102 | 74.1 | 238 | 62.4 | 81.6 | 65.3 | 74.7 | 203 | 106 | 78.3 | 97.1 | 44.2 | 76.3 | 36.3
O=C(Nc1cc(C(F)(F)F)cc(C(F)(F)F)c1)c1cc(Cl)ccc1O + NC1(c2ccc(-c3nc4ccn5c(=O)[nH]nc5c4cc3-c3ccccc3)cc2)CCC1 [MK2206] (first compound 0.016 µM, partner dose 0.4 µM) | 694 | 26.8 | 78.2 | 59.7 | 206 | 140 | 104 | 340 | 136 | 72 | 103 | 156 | 86.1 | 70
CCCCCCCCCCCCCCCCCCOP(=O)([O-])OC1CC[N+](C)(C)CC1 [Perifosine] + COCC[n+]1c2c(n(Cc3cnccn3)c1C)C(=O)c1ccccc1C2=O [YM155] (first compound 0.4 µM, partner dose 0.0004 µM) | 135 | 106 | 164 | 54.3 | 76.7 | 155 | 22.7 | 35.1 | 122 | 58.8 | 82.7 | 40.1 | 104 | 76.7
CCCCCCCCCCCCCCCCCCOP(=O)([O-])OC1CC[N+](C)(C)CC1 [Perifosine] + Cc1nc(Nc2ncc(C(=O)Nc3c(C)cccc3Cl)s2)cc(N2CCN(CCO)CC2)n1 [dasatanib] (first compound 0.4 µM, partner dose 0.004 µM) | 104 | 88.4 | 94.6 | 122 | 407 | 177 | 89.8 | 359 | 126 | 36.2 | 117 | 52.3 | 75.5 | 140
Cc1cc(Nc2cc(N3CCN(C)CC3)nc(Sc3ccc(NC(=O)C4CC4)cc3)n2)n[nH]1 [Tozasertib] + CNC(=O)c1cc(Oc2ccc(NC(=O)Nc3ccc(Cl)c(C(F)(F)F)c3)cc2)ccn1 [sorafenib] (first compound 0.006 µM, partner dose 0.4 µM) | 158 | 132 | 55.1 | 74.3 | 90.1 | 57.9 | 55.1 | 124 | 148 | 115 | 106 | 153 | 115 | 110
N#CC[C@H](C1CCCC1)n1cc(-c2ncnc3[nH]ccc23)cn1 [ruxolitinib] + OCc1c[nH]c2ccccc12 [Indole-3-carbinol] (first compound 1 µM, partner dose 0.8 µM) | 128 | 88.7 | 90 | 85.7 | 27.1 | 55.4 | 115 | 58.1 | 82.8 | 107 | 104 | 63.7 | 112 | 69.8
O=C(/C=C/c1cccnc1)NCCCCC1CCN(C(=O)c2ccccc2)CC1 + CCCS(=O)(=O)Nc1ccc(F)c(C(=O)c2c[nH]c3ncc(Cl)cc23)c1F [PLX4720] (first compound 0.01 µM, partner dose 0.08 µM) | 844 | 79.9 | 145 | 169 | 34.1 | 872 | 97.8 | 67.9 | 66.6 | 33 | 475 | 76.3 | 109 | 63.3
O=c1[nH]nc(Sc2ncc([N+](=O)[O-])s2)n1-c1ccc2c(c1)OCCO2 + Nc1cccc2c1CN(C1CCC(=O)NC1=O)C2=O [lenalidomide] (first compound 0.2 µM, partner dose 1 µM) | 19.5 | 161 | 262 | 26.8 | 65.1 | 143 | 34.7 | 173 | 147 | 67.6 | 89.5 | 79.8 | 93.3 | 86.3
CC[C@]1(O)C[C@H]2CN(CCc3c([nH]c4ccccc34)[C@@](C(=O)OC)(c3cc4c(cc3OC)N(C=O)[C@H]3[C@@](O)(C(=O)OC)[C@H](OC(C)=O)[C@]5(CC)C=CCN6CC[C@]43[C@@H]65)C2)C1 [vincristine] + COc1ccc(Cl)c(Nc2nc3ccccc3nc2NS(=O)(=O)c2cccc(NC(=O)C(C)(C)N)c2)c1 [XL147] (first compound 0.0001 µM, partner dose 0.8 µM) | 94.8 | 15.1 | 152 | 199 | 89.2 | 140 | 175 | 121 | 612 | 149 | 110 | 92.1 | 135 | 152
N#CC[C@H](C1CCCC1)n1cc(-c2ncnc3[nH]ccc23)cn1 [ruxolitinib] + Cn1c(=O)n(-c2ccc(C(C)(C)C#N)cc2)c2c3cc(-c4cnc5ccccc5c4)ccc3ncc21 [NVP-BEZ235] (first compound 1 µM, partner dose 0.004 µM) | 168 | 28.1 | 99.1 | 182 | 141 | 157 | 31.8 | 146 | 23.1 | 52.3 | 93.7 | 123 | 92.8 | 108
Cc1ccc(Nc2nccc(N(C)c3ccc4c(C)n(C)nc4c3)n2)cc1S(N)(=O)=O [Pazopanib] + O=C(O)[C@@H]1[O][Sb](=[O])([O][Sb]2(=[O])[O][C@H]([C@H](O)CO)[C@H](O)[C@H](C(=O)O)[O]2)[O][C@H]([C@H](O)CO)[C@@H]1O [stibogluconate] (first compound 0.4 µM, partner dose 2 µM) | 115 | 613 | 158 | 172 | 81.8 | 125 | 102 | 62.3 | 72.8 | 4160 | 93.1 | 86.3 | 111 | 45.8
O=C(Nc1cc(C(F)(F)F)cc(C(F)(F)F)c1)c1cc(Cl)ccc1O + CCCS(=O)(=O)Nc1ccc(F)c(C(=O)c2c[nH]c3ncc(Cl)cc23)c1F [PLX4720] (first compound 0.016 µM, partner dose 0.08 µM) | 80.4 | 160 | 58 | 150 | 85.5 | 145 | 45 | 104 | 66.1 | 394 | 88.5 | 96.8 | 91.1 | 169
O=C(/C=C/c1cccnc1)NCCCCC1CCN(C(=O)c2ccccc2)CC1 + CS(=O)(=O)CCNCc1ccc(-c2ccc3ncnc(Nc4ccc(OCc5cccc(F)c5)c(Cl)c4)c3c2)o1 [lapatinib] (first compound 0.01 µM, partner dose 0.8 µM) | 684 | 322 | 94.4 | 190 | 86.8 | 2210 | 40.8 | 168 | 126 | 66.2 | 74.6 | 45.5 | 202 | 117
CC[C@]1(O)C[C@H]2CN(CCc3c([nH]c4ccccc34)[C@@](C(=O)OC)(c3cc4c(cc3OC)N(C=O)[C@H]3[C@@](O)(C(=O)OC)[C@H](OC(C)=O)[C@]5(CC)C=CCN6CC[C@]43[C@@H]65)C2)C1 [vincristine] + COCC[n+]1c2c(n(Cc3cnccn3)c1C)C(=O)c1ccccc1C2=O [YM155] (first compound 0.0001 µM, partner dose 0.0004 µM) | 331 | 342 | 199 | 53.8 | 94 | 161 | 47.1 | 556 | 857 | 1970 | 105 | 63 | 164 | 176
Cc1ccc(Nc2nccc(N(C)c3ccc4c(C)n(C)nc4c3)n2)cc1S(N)(=O)=O [Pazopanib] + Cn1nnc2c(C(N)=O)ncn2c1=O [temozolomide] (first compound 0.4 µM, partner dose 2 µM) | 51.3 | 91.2 | 63.6 | 31.5 | 85.1 | 14 | 107 | 146 | 130 | 116 | 103 | 84.8 | 106 | 49.4
O=C(/C=C/c1cccnc1)NCCCCC1CCN(C(=O)c2ccccc2)CC1 + Clc1ccc(Nc2nnc(Cc3ccncc3)c3ccccc23)cc1 [vatalanib] (first compound 0.01 µM, partner dose 2 µM) | 327 | 167 | 40.4 | 62.1 | 204 | 1580 | 115 | 101 | 17.8 | 141 | 95.2 | 76.8 | 113 | 82.2

Random excerpt: two entries already listed, in no set order.
SMILES | cleaved PARP positive nuclei fraction [1] [%] | cleaved PARP positive nuclei fraction [2] [%] | cleaved PARP positive nuclei fraction [3] [%] | cleaved PARP positive nuclei fraction [4] [%] | cleaved PARP positive nuclei fraction [5] [%] | cleaved PARP positive nuclei fraction [6] [%] | cleaved PARP positive nuclei fraction [7] [%] | cleaved PARP positive nuclei fraction [8] [%] | cleaved PARP positive nuclei fraction [9] [%] | cleaved PARP positive nuclei fraction [10] [%] | cleaved PARP positive nuclei fraction [11] [%] | cleaved PARP positive nuclei fraction [12] [%] | cleaved PARP positive nuclei fraction [13] [%] | cleaved PARP positive nuclei fraction [14] [%]
CCCCCCCCCCCCCCCCCCOP(=O)([O-])OC1CC[N+](C)(C)CC1 [Perifosine] + COCC[n+]1c2c(n(Cc3cnccn3)c1C)C(=O)c1ccccc1C2=O [YM155] (first compound 0.4 µM, partner dose 0.0004 µM) | 135 | 106 | 164 | 54.3 | 76.7 | 155 | 22.7 | 35.1 | 122 | 58.8 | 82.7 | 40.1 | 104 | 76.7
CCCCCCCCCCCCCCCCCCOP(=O)([O-])OC1CC[N+](C)(C)CC1 [Perifosine] + Cc1nc(Nc2ncc(C(=O)Nc3c(C)cccc3Cl)s2)cc(N2CCN(CCO)CC2)n1 [dasatanib] (first compound 0.4 µM, partner dose 0.004 µM) | 104 | 88.4 | 94.6 | 122 | 407 | 177 | 89.8 | 359 | 126 | 36.2 | 117 | 52.3 | 75.5 | 140

Source: the supplement of paper PMC4604168 (melanoma cell lines)
